PubChem BioAssay AID504784 | Drosophila RNAi Screening Center – 2011
In all, the deposit lists about 17,000 reagents; below is a random part of those with a known target gene and a result. 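Each column is one replicate's B-score; the combined score over replicates was not deposited, so single values may mislead.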 Further read-outs or replicates are left out here.

Purpose: 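Search for regulators of lipid droplet storage in oleate-fed fly cells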 (primary screen)
Cells: Drosophila Kc167 embryonic cells
Knock-down reagent: long dsRNA against Drosophila genes, about 250 ng dsRNA per well
Timing: 4 days
Challenge: cells fed 400 µM oleic acid bound to BSA
Measurement: 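Cells imaged and segmented; ratio of lipid droplet area to nuclear area, log-transformed, then normalised as a B-score over the screen; higher means more stored lipid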
Direction: droplet/nuclear area B-score: higher = more stored lipid (overstorage)

CG32945 [DRSC12014]: droplet/nuclear area B-score, replicate 1 = -0.3
brp (bruchpilot) [DRSC06245]: droplet/nuclear area B-score, replicate 1 = -0.0497
brp (bruchpilot) [DRSC06246]: droplet/nuclear area B-score, replicate 1 = -1.11
brp (bruchpilot) [DRSC06801]: droplet/nuclear area B-score, replicate 1 = -0.814
brp (bruchpilot) [DRSC21893]: droplet/nuclear area B-score, replicate 1 = 4.66
CG15357 [DRSC00387]: droplet/nuclear area B-score, replicate 1 = 0.144
Echs1 (Enoyl-CoA hydratase, short chain 1) [DRSC06999]: droplet/nuclear area B-score, replicate 1 = -0.591
RpL3 (Ribosomal protein L3) [DRSC16834]: droplet/nuclear area B-score, replicate 1 = 2.35
l(2)34Fd (lethal (2) 34Fd) [DRSC01911]: droplet/nuclear area B-score, replicate 1 = -0.662
CG5246 [DRSC15751]: droplet/nuclear area B-score, replicate 1 = 0.0343
l(2)05714 (lethal (2) 05714) [DRSC03118]: droplet/nuclear area B-score, replicate 1 = -1.29
CG12643 [DRSC17849]: droplet/nuclear area B-score, replicate 1 = -0.01
Ir84a (Ionotropic receptor 84a) [DRSC12510]: droplet/nuclear area B-score, replicate 1 = -1.17
Gr98b (Gustatory receptor 98b) [DRSC21675]: droplet/nuclear area B-score, replicate 1 = 0.00121
Cpr49Af (Cuticular protein 49Af) [DRSC07202]: droplet/nuclear area B-score, replicate 1 = -0.73
CG18128 [DRSC04304]: droplet/nuclear area B-score, replicate 1 = -0.00966
Rtnl1 (Reticulon-like1) [DRSC00851]: droplet/nuclear area B-score, replicate 1 = -0.534
Rtnl1 (Reticulon-like1) [DRSC02684]: droplet/nuclear area B-score, replicate 1 = 0.795
Rtnl1 (Reticulon-like1) [DRSC03122]: droplet/nuclear area B-score, replicate 1 = -0.493
Rtnl1 (Reticulon-like1) [DRSC21698]: droplet/nuclear area B-score, replicate 1 = 1.19

Continued; the last 7 above are carried over.
Gr98b (Gustatory receptor 98b) [DRSC21675]: droplet/nuclear area B-score, replicate 1 = 0.00121
Cpr49Af (Cuticular protein 49Af) [DRSC07202]: droplet/nuclear area B-score, replicate 1 = -0.73
CG18128 [DRSC04304]: droplet/nuclear area B-score, replicate 1 = -0.00966
Rtnl1 (Reticulon-like1) [DRSC00851]: droplet/nuclear area B-score, replicate 1 = -0.534
Rtnl1 (Reticulon-like1) [DRSC02684]: droplet/nuclear area B-score, replicate 1 = 0.795
Rtnl1 (Reticulon-like1) [DRSC03122]: droplet/nuclear area B-score, replicate 1 = -0.493
Rtnl1 (Reticulon-like1) [DRSC21698]: droplet/nuclear area B-score, replicate 1 = 1.19
Mtch [DRSC08679]: droplet/nuclear area B-score, replicate 1 = 0.204
Ebp (Ejaculatory bulb protein) [DRSC04048]: droplet/nuclear area B-score, replicate 1 = 0.905
CG7492 [DRSC10855]: droplet/nuclear area B-score, replicate 1 = 0.499
CG32061 [DRSC22605]: droplet/nuclear area B-score, replicate 1 = -0.0474
CG13041 [DRSC09922]: droplet/nuclear area B-score, replicate 1 = -2.21
CG14238 [DRSC14732]: droplet/nuclear area B-score, replicate 1 = -1.3
CG14247 [DRSC14742]: droplet/nuclear area B-score, replicate 1 = -0.846
Cdk4 (Cyclin-dependent kinase 4) [DRSC07358]: droplet/nuclear area B-score, replicate 1 = -1.03
ect (ectodermal) [DRSC10675]: droplet/nuclear area B-score, replicate 1 = 0.986
ect (ectodermal) [DRSC11343]: droplet/nuclear area B-score, replicate 1 = -0.561
ect (ectodermal) [DRSC22357]: droplet/nuclear area B-score, replicate 1 = -0.264
Gapvd1 (GTPase activating protein and VPS9 domains 1) [DRSC19752]: droplet/nuclear area B-score, replicate 1 = 1.84
MFS14 (Major Facilitator Superfamily Transporter 14) [DRSC06524]: droplet/nuclear area B-score, replicate 1 = 0.33
nau (nautilus) [DRSC17011]: droplet/nuclear area B-score, replicate 1 = 1.29
Phb1 (Prohibitin 1) [DRSC03563]: droplet/nuclear area B-score, replicate 1 = 1.26
CG9147 [DRSC03147]: droplet/nuclear area B-score, replicate 1 = -2.24
CG31111 [DRSC14649]: droplet/nuclear area B-score, replicate 1 = 1.38
CG17108 [DRSC02576]: droplet/nuclear area B-score, replicate 1 = 0.0832
CG17108 [DRSC22214]: droplet/nuclear area B-score, replicate 1 = 0.384
Kcmf1 (Potassium channel modulatory factor 1) [DRSC14459]: droplet/nuclear area B-score, replicate 1 = 3.28
Rhp (Rhophilin) [DRSC20279]: droplet/nuclear area B-score, replicate 1 = 0.461
Mcad (Medium-chain acyl-CoA dehydrogenase) [DRSC09871]: droplet/nuclear area B-score, replicate 1 = -0.35
RpL24 (Ribosomal protein L24) [DRSC03185]: droplet/nuclear area B-score, replicate 1 = 12.5
Tdc2 (Tyrosine decarboxylase 2) [DRSC04999]: droplet/nuclear area B-score, replicate 1 = 1.56
eIF3k (eukaryotic translation initiation factor 3 subunit k) [DRSC04056]: droplet/nuclear area B-score, replicate 1 = 1.01
CG14756 [DRSC06491]: droplet/nuclear area B-score, replicate 1 = -0.0568
spz5 (spatzle 5) [DRSC08645]: droplet/nuclear area B-score, replicate 1 = 0.528
Osi21 (Osiris 21) [DRSC02408]: droplet/nuclear area B-score, replicate 1 = -0.319
GCS2beta (Glucosidase 2 beta subunit) [DRSC02960]: droplet/nuclear area B-score, replicate 1 = -0.674
Gapdh2 (Glyceraldehyde 3 phosphate dehydrogenase 2) [DRSC20246]: droplet/nuclear area B-score, replicate 1 = -1.81
CG32454 [DRSC11652]: droplet/nuclear area B-score, replicate 1 = -1.02
